For at least one entry, the source does not settle the construct or the ends of the probe. For some assays here: No signal at the amounts used counts as a negative.

Amino acid sequences for entries named in this document (tags omitted). A change or cut given only in a name is not applied to a line headed by its entry.
UniProt Q8NHW3: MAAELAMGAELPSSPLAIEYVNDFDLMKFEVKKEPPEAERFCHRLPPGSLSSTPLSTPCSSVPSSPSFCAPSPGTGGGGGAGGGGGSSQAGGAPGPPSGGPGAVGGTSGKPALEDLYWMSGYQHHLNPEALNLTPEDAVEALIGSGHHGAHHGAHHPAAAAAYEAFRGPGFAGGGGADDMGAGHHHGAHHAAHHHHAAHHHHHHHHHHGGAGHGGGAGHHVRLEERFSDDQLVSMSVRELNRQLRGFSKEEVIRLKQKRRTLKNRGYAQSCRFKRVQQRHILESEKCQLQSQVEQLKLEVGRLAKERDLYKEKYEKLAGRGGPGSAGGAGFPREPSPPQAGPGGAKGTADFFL

Data set [1] concerns the target TAT-MafA, ERK2 kinase treated (human) (UniProt Q8NHW3). Kind of data set: EMSA. Particulars: ERK2-phosphorylated TAT-MafA; Pierce LightShift chemiluminescent EMSA kit; 200 fmol/ul biotin-DNA, unlabeled competitor 10 pmol/ul, 82.15 ug TAT-MafA; ERK2 or PBS 37 C 1 h, then 20 min binding; recombinant protein.
The subject of data set [2] is ERK2 kinase alone. Kind of data set: EMSA. The following applies: kinase alone, PBS instead of TAT-MafA; Pierce LightShift chemiluminescent EMSA kit; 200 fmol/ul biotin-DNA, unlabeled competitor 10 pmol/ul, 82.15 ug TAT-MafA; ERK2 or PBS 37 C 1 h, then 20 min binding; commercial protein.

In the case of “ATGGTCCGGAAATTGCAGCCTCAGCCCCCAGCCATC (double strand) [insulin promoter -139 to -104 (C1 box)]”, the binding result in data set [1] was “binds”; in data set [2] it was “no binding”.

(Values after publication PMC3150355.)
